± gives the standard deviation of the averaged measurements. Most entries show no effect beyond the scatter of the controls.
What was measured:
Assay in all cases: level (log10 ratio to DMSO vehicle control); higher = higher biomarker level / cell amount than vehicle control
[1] = compound: O=C(Cl)C(F)(F)C(F)(F)C(F)(F)C(=O)Cl [Hexafluoroglutaryl chloride]; conditions: 2200 nM; in DMSO
Procedure: (§1)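 BioMAP Diversity Plus panel of 12 human primary cell co-culture systems (3C, 4H, LPS, SAg, BT, BF4T, BE3C, CASM3C, HDF3CGF, KF3CT, MyoF, Mphg). Compounds were added 1 h before stimulation and left for 24 h (MyoF 48 h; BT 72 h for soluble read-outs or 6 d for IgG). Biomarkers were read by ELISA, cytotoxicity by SRB, PBMC viability and proliferation by Alamar Blue. Each well value was divided by the mean of 8 DMSO control wells on the same plate and log10 transformed; duplicate blinded samples were tested at 4 concentrations.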

[2] = compound: O=C(O)C(F)(F)C(F)(F)C(F)(F)C(F)(F)C(F)(F)C(F)(F)C(F)(F)C(F)(F)C(F)(F)C(F)(F)C(F)(F)C(F)(F)C(F)(F)F [Perfluorotetradecanoic acid]; conditions: in DMSO
Procedure: as §1

[3] = compound: C=CC(=O)OCC(F)(F)C(F)(F)C(F)(F)COC(=O)C=C [1H,1H,5H,5H-Perfluoro-1,5-pentanediol diacrylate]; conditions: 2200 nM; in DMSO
Procedure: as §1

[4] = compound: C=CC(=O)OCCC(F)(F)C(F)(F)C(F)(F)C(F)(F)F [2-(Perfluorobutyl)ethyl acrylate]; conditions: 2200 nM; in DMSO
Procedure: as §1

[5] = compound: O=C(O)C=C(C(F)(F)F)C(F)(F)F [3,3-Bis(trifluoromethyl)-2-propenoic acid]; conditions: in DMSO
Procedure: as §1

[6] = compound: FC(F)(F)C(F)(F)C(F)(F)C(F)(F)C(F)(F)C(F)(F)I [Perfluoro-1-iodohexane]; conditions: in DMSO
Procedure: as §1

[7] = compound: C=CC(=O)OCCC(F)(F)C(F)(F)C(F)(F)C(F)(F)C(F)(F)C(F)(F)C(F)(F)C(F)(F)F [8:2 Fluorotelomer acrylate]; conditions: 2200 nM; in DMSO
Procedure: as §1

[8] = compound: FC(F)(F)C(F)(C(F)(F)F)C(F)(F)C(F)(F)CC1CO1 [3-(Perfluoro-3-methylbutyl)-1,2-propenoxide]; conditions: in DMSO
Procedure: as §1

[9] = compound: O=S(=O)(O)C(F)(F)C(F)(F)C(F)(F)C(F)(F)C(F)(F)C(F)(F)F [Perfluorohexanesulfonic acid]; conditions: 2200 nM; in DMSO
Procedure: as §1

[10] = compound: FC(F)(I)C(F)(F)C(F)(F)C(F)(F)C(F)(F)C(F)(F)I [1,6-Diiodoperfluorohexane]; conditions: 2200 nM; in DMSO
Procedure: as §1

[11] = compound: OCC(F)(F)C(F)(F)C(F)(F)CO [Hexafluoroamylene glycol]; conditions: 2200 nM; in DMSO
Procedure: as §1

[12] = compound: OCCCC(F)(F)C(F)(F)C(F)(F)C(F)(F)C(F)(F)C(F)(F)C(F)(F)F [7:3 Fluorotelomer alcohol]; conditions: 2200 nM; in DMSO
Procedure: as §1

[13] = compound: O=S(=O)(O)CCC(F)(F)C(F)(F)C(F)(F)C(F)(F)F [4:2 Fluorotelomer sulfonic acid]; conditions: 2200 nM; in DMSO
Procedure: as §1

LPS:M-CSF was tested, and the “level (log10)” value [1] was 0.009 ± 0.048, the “level (log10)” value ([2]; 740 nM) was 0.01 ± 0.011 and the “level (log10)” value ([2]; 2200 nM) was -0.019 ± 0.011. The “level (log10)” value [3] was 0.002 ± 0.068, the “level (log10)” value [4] was 0.005 ± 0.038 and the “level (log10)” value ([5]; 2200 nM) was -0.0305 ± 0.005. For the same test system, the “level (log10)” value ([5]; 6700 nM) was -0.071 ± 0.082, the “level (log10)” value ([5]; 20000 nM) was -0.155 ± 0.13 and the “level (log10)” value ([5]; 60000 nM) was -0.203 ± 0.13. The “level (log10)” value ([6]; 2200 nM) was 0.012 ± 0.023, the “level (log10)” value ([6]; 6700 nM) was 0.0135 ± 0.019 and the “level (log10)” value ([6]; 20000 nM) was -0.0055 ± 0.05. The “level (log10)” value ([6]; 60000 nM) was -0.003 ± 0.025, the “level (log10)” value [7] was 0.021 ± 0.067 and the “level (log10)” value ([8]; 740 nM) was 0.014 ± 0.037. The “level (log10)” value ([8]; 2200 nM) was -0.0025 ± 0.0021, the “level (log10)” value [9] was 0.0115 ± 0.015 and the “level (log10)” value [10] was 0.028 ± 0.027. The “level (log10)” value [11] was 0.02 ± 0.0028, the “level (log10)” value [12] was 0.0025 ± 0.029 and the “level (log10)” value [13] was -0.0005 ± 0.023.
CASM3C:CCL2/MCP-1 was tested, and the “level (log10)” value [1] was 0.0025 ± 0.028, the “level (log10)” value ([2]; 740 nM) was -0.094 ± 0.2 and the “level (log10)” value ([2]; 2200 nM) was -0.086 ± 0.12. For the same test system, the “level (log10)” value [3] was 0.0115 ± 0.03, the “level (log10)” value [4] was 0.009 ± 0.023 and the “level (log10)” value ([5]; 2200 nM) was -0.0145 ± 0.023. For the same test system, the “level (log10)” value ([5]; 6700 nM) was -0.03 ± 0.0028, the “level (log10)” value ([5]; 20000 nM) was -0.0425 ± 0.00071 and the “level (log10)” value ([5]; 60000 nM) was -0.0465 ± 0.022. For the same test system, the “level (log10)” value ([6]; 2200 nM) was 0.011 ± 0.014, the “level (log10)” value ([6]; 6700 nM) was 0.006 ± 0.0099 and the “level (log10)” value ([6]; 20000 nM) was -0.0085 ± 0.019. The “level (log10)” value ([6]; 60000 nM) was 0.0015 ± 0.049, the “level (log10)” value [7] was -0.006 ± 0.018 and the “level (log10)” value ([8]; 740 nM) was 0.002. For the same test system, the “level (log10)” value ([8]; 2200 nM) was 0.001 ± 0.0071, the “level (log10)” value [9] was -0.017 ± 0.038 and the “level (log10)” value [10] was 0.017 ± 0.024. For the same test system, the “level (log10)” value [11] was 0.013 ± 0.025, the “level (log10)” value [12] was -0.0065 ± 0.013 and the “level (log10)” value [13] was 0.0155 ± 0.036.
For HDF3CGF:TIMP-1, the “level (log10)” value [1] was 0.0075 ± 0.03, the “level (log10)” value ([2]; 740 nM) was 0.023 ± 0.045 and the “level (log10)” value ([2]; 2200 nM) was 0.018 ± 0.079. The “level (log10)” value [3] was -0.155 ± 0.096, the “level (log10)” value [4] was -0.021 ± 0.048 and the “level (log10)” value ([5]; 2200 nM) was -0.0655 ± 0.074. The “level (log10)” value ([5]; 6700 nM) was -0.0935 ± 0.049, the “level (log10)” value ([5]; 20000 nM) was -0.125 ± 0.065 and the “level (log10)” value ([5]; 60000 nM) was -0.0675 ± 0.013. For the same test system, the “level (log10)” value ([6]; 2200 nM) was -0.0155 ± 0.016, the “level (log10)” value ([6]; 6700 nM) was -0.014 ± 0.021 and the “level (log10)” value ([6]; 20000 nM) was -0.017 ± 0.025. For the same test system, the “level (log10)” value ([6]; 60000 nM) was -0.0385 ± 0.016, the “level (log10)” value [7] was -0.0035 ± 0.022 and the “level (log10)” value ([8]; 740 nM) was 0.0055 ± 0.04. The “level (log10)” value ([8]; 2200 nM) was 0.004 ± 0.011, the “level (log10)” value [9] was 0.007 ± 0.048 and the “level (log10)” value [10] was 0.026 ± 0.018. For the same test system, the “level (log10)” value [11] was -0.0225 ± 0.063, the “level (log10)” value [12] was -0.0285 ± 0.0078 and the “level (log10)” value [13] was 0.0075 ± 0.028.
For SAg:PBMC Cytotoxicity, the “level (log10)” value [1] was 0.024 ± 0.025, the “level (log10)” value ([2]; 740 nM) was -0.0035 ± 0.043 and the “level (log10)” value ([2]; 2200 nM) was -0.04 ± 0.041. The “level (log10)” value [3] was -0.033 ± 0.045, the “level (log10)” value [4] was 0.0085 ± 0.043 and the “level (log10)” value ([5]; 2200 nM) was -0.009 ± 0.038. For the same test system, the “level (log10)” value ([5]; 6700 nM) was -0.01 ± 0.0028, the “level (log10)” value ([5]; 20000 nM) was -0.021 ± 0.016 and the “level (log10)” value ([5]; 60000 nM) was 0.002 ± 0.03. The “level (log10)” value ([6]; 2200 nM) was 0.0075 ± 0.012, the “level (log10)” value ([6]; 6700 nM) was -0.025 ± 0.023 and the “level (log10)” value ([6]; 20000 nM) was -0.014 ± 0.0014. For the same test system, the “level (log10)” value ([6]; 60000 nM) was -0.024 ± 0.028, the “level (log10)” value [7] was 0.0065 ± 0.005 and the “level (log10)” value ([8]; 740 nM) was 0.019 ± 0.011. The “level (log10)” value ([8]; 2200 nM) was -0.0215 ± 0.00071, the “level (log10)” value [9] was 0.043 ± 0.089 and the “level (log10)” value [10] was 0.0015 ± 0.018. For the same test system, the “level (log10)” value [11] was 0.04 ± 0.016, the “level (log10)” value [12] was 0.0005 ± 0.0092 and the “level (log10)” value [13] was 0.0245 ± 0.046.
For BE3C:PAI-I, the “level (log10)” value [1] was -0.011 ± 0.031, the “level (log10)” value ([2]; 740 nM) was 0.0095 ± 0.0092 and the “level (log10)” value ([2]; 2200 nM) was 0.0265 ± 0.026. The “level (log10)” value [3] was 0.034 ± 0.047, the “level (log10)” value [4] was 0.01 ± 0.017 and the “level (log10)” value ([5]; 2200 nM) was -0.022 ± 0.034. The “level (log10)” value ([5]; 6700 nM) was -0.043 ± 0.0042, the “level (log10)” value ([5]; 20000 nM) was -0.0315 ± 0.005 and the “level (log10)” value ([5]; 60000 nM) was -0.0085 ± 0.032. For the same test system, the “level (log10)” value ([6]; 2200 nM) was -0.0225 ± 0.046, the “level (log10)” value ([6]; 6700 nM) was -0.0245 ± 0.04 and the “level (log10)” value ([6]; 20000 nM) was -0.0045 ± 0.025. The “level (log10)” value ([6]; 60000 nM) was 0.006 ± 0.037, the “level (log10)” value [7] was -0.0135 ± 0.047 and the “level (log10)” value ([8]; 740 nM) was 0.004 ± 0.02. For the same test system, the “level (log10)” value ([8]; 2200 nM) was -0.0015 ± 0.019, the “level (log10)” value [9] was 0.0045 ± 0.025 and the “level (log10)” value [10] was 0.03 ± 0.03. For the same test system, the “level (log10)” value [11] was -0.0185 ± 0.021, the “level (log10)” value [12] was -0.0635 ± 0.016 and the “level (log10)” value [13] was 0.0105 ± 0.0078.
In the case of CASM3C:CXCL9/MIG, the “level (log10)” value [1] is reported as 0.035 ± 0.013, the “level (log10)” value ([2]; 740 nM) is reported as 0.0245 ± 0.025 and the “level (log10)” value ([2]; 2200 nM) is reported as -0.0155 ± 0.016. For the same test system, the “level (log10)” value [3] was -0.0165 ± 0.026, the “level (log10)” value [4] was -0.004 ± 0.033 and the “level (log10)” value ([5]; 2200 nM) was -0.052 ± 0.079. For the same test system, the “level (log10)” value ([5]; 6700 nM) was -0.059 ± 0.051, the “level (log10)” value ([5]; 20000 nM) was -0.0845 ± 0.022 and the “level (log10)” value ([5]; 60000 nM) was -0.0965 ± 0.087. The “level (log10)” value ([6]; 2200 nM) was 0.008 ± 0.014, the “level (log10)” value ([6]; 6700 nM) was -0.0015 ± 0.0064 and the “level (log10)” value ([6]; 20000 nM) was 0.002 ± 0.0028. For the same test system, the “level (log10)” value ([6]; 60000 nM) was -0.0025 ± 0.036, the “level (log10)” value [7] was 0.0365 ± 0.023 and the “level (log10)” value ([8]; 740 nM) was -0.0105 ± 0.037. For the same test system, the “level (log10)” value ([8]; 2200 nM) was -0.0145 ± 0.018, the “level (log10)” value [9] was 0.0075 ± 0.0078 and the “level (log10)” value [10] was 0.005 ± 0.0042. The “level (log10)” value [11] was 0.005 ± 0.048, the “level (log10)” value [12] was 0.009 ± 0.021 and the “level (log10)” value [13] was 0.0005 ± 0.043.
